The list shows a part of the results.

By UniProt entry, the sequences of proteins in these tests, tags left out.
UniProt Q0JBA9, entry or part of it: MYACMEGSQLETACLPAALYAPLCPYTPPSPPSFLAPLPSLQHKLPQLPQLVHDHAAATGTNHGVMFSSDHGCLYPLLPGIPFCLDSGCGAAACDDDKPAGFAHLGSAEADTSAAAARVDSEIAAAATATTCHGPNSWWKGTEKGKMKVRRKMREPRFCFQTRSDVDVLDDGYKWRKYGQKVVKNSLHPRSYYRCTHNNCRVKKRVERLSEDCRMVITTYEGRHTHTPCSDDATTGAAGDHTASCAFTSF

The target of the assay is OsWRKY34 (Oryza sativa, UniProt Q0JBA9 1-250). The assay can be described thus: protein-binding microarray (RPBM); PBS, 2% BSA, 51.3 ng/ul salmon testes DNA, 50 uM zinc acetate, 200 nM TF, 25 C, 1 h; high values mean tight binding. The following applies: protein: recombinant; tags: N-terminal polyhistidine and DsRed monomer fusion (pET32a); label: CyDye5-dUTP incorporated in the synthesized complementary strand; 3' TTTTT single-stranded linker to array surface; dsDNA, one strand shown. The gist of the method:
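The binding signal is fluorescence intensity per array feature (arbitrary units). Readings came from an Axon 4000B scanner after a washed, 2% BSA-blocked, double-stranded custom Agilent array had been incubated for 1 h at 25 °C with 200 nM protein and 50 µM zinc acetate. The protein was a Ni–NTA-purified transcription factor fused N-terminally to polyhistidine and DsRed, expressed in E. coli BL21-CodonPlus.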
Turning to “CTACCTCCCCACATCTCATCCATGCATTATGTTCCCTTCACGGAGTCACCTAGTGCAG”, the binding signal was 8250 fluorescence intensity (a.u.).
Consider “AAACCTTCGCTCTAAATCTTCCTGCTTTTTATCCCAATTTCGGAGTCACCTAGTGCAG”, for which the binding signal was 8420 fluorescence intensity (a.u.).
For the sequence “TCCAATTTTGGCCTCAATTTTCCTTTCATTCATAATGGGCCGGAGTCACCTAGTGCAG”, the binding signal is 8290 fluorescence intensity (a.u.).
Then “CTTAATTAATCATATGCTAATCGTATTTCTCGTTTTATGTCGGAGTCACCTAGTGCAG”, with 10100 fluorescence intensity (a.u.).
For the sequence “CCTATTTTTTGCTGGTTGGAGTTCTTCTATTTCTCTTTTACGGAGTCACCTAGTGCAG”, the binding signal is 11300 fluorescence intensity (a.u.).
Then “ATGGGCTTTCCTGCACTAGTGAATTGTGGTAATTCAGATACGGAGTCACCTAGTGCAG”, with 8070 fluorescence intensity (a.u.).
On to “TTCCCCTTGCTCTTGCATTTGCTGCCGCTCTTCGCCTCTTCGGAGTCACCTAGTGCAG”, for which the binding signal was 9270 fluorescence intensity (a.u.).
To “TCTAACCATTGACTTTTTTCCCCTGCCCGCTCTTACACGGCGGAGTCACCTAGTGCAG” belongs 15100 fluorescence intensity (a.u.); to “CCCAGTTTAGCACAGTTTTCATCTAGATTTGTCGTCTCGTCGGAGTCACCTAGTGCAG”, 8630 fluorescence intensity (a.u.).
To “TTATCTCTAGCTTGTTCCAATCTCTGCATTTGAATGACTACGGAGTCACCTAGTGCAG” belongs 9730 fluorescence intensity (a.u.); to “GGTTAATTGTACCTGGTCGCCTGATCGCGTCACTTTACGCCGGAGTCACCTAGTGCAG”, 8850 fluorescence intensity (a.u.).
To “CTCTTCCTCTGCATCTTCCACTTCCTCTTCCTCTTTTCTCCGGAGTCACCTAGTGCAG” belongs 8470 fluorescence intensity (a.u.); to “AATCCCACGCGATTCGTCGTCGATCTGGCCACGGCACTCCCGGAGTCACCTAGTGCAG”, 8520 fluorescence intensity (a.u.); to “TATTCGCCATTTTTTTCAGTTTTCTTAATCACGTCATTTACGGAGTCACCTAGTGCAG”, 10100 fluorescence intensity (a.u.).
With “AAGATCGGTCATCGCTTTTCCTTGTTCTTCTTAGTTCATCCGGAGTCACCTAGTGCAG”, the binding signal was 12700 fluorescence intensity (a.u.).
As to “ATCGCTACATTCCTGGAGGCATCCAGTTGATTCCACTCAACGGAGTCACCTAGTGCAG”, the binding signal is 10200 fluorescence intensity (a.u.).
To “CTGTCCAACTGCCAGTCAGCTAGCCCCAAGTGTATACTCTCGGAGTCACCTAGTGCAG” belongs 8620 fluorescence intensity (a.u.); to “GTCCATCACGGCCGGACAAACCTCGCCGCTTCGCTTCGCTCGGAGTCACCTAGTGCAG”, 8220 fluorescence intensity (a.u.); to “CATTAAAGCTTTTTTACACACGTAAACTTCTAACTTTTTCCGGAGTCACCTAGTGCAG”, 10100 fluorescence intensity (a.u.).
Then “CGTCGCCTTCGTCTTCGTCTTCGTCGTCGTCCTCATCATGCGGAGTCACCTAGTGCAG”, with 9100 fluorescence intensity (a.u.); and “GTCAAGCTACGCCGCTCTGGCCGTCGGCCACTCCGCCCCACGGAGTCACCTAGTGCAG”, with 8580 fluorescence intensity (a.u.); and “TTCGTTTTCGTTTTCTTTCCCCTTTTTCTGTCGGTTAATTCGGAGTCACCTAGTGCAG”, with 10100 fluorescence intensity (a.u.).
Turning to “GTATTCTATTTTTTCATTCTCATATATTTGTTATCGCACACGGAGTCACCTAGTGCAG”, the binding signal is 10300 fluorescence intensity (a.u.).
“TTCAGTTTAGATACTTTTCTCGATATTCGTTAGCATATATCGGAGTCACCTAGTGCAG”: the binding signal is 8430 fluorescence intensity (a.u.).
To “GTCGTGTATATATACGCATTCATGTGTGTCAAGGCAATATCGGAGTCACCTAGTGCAG” belongs 8300 fluorescence intensity (a.u.); to “ACTACTTAATTTAGCTTATTTTGCATACTTGGTTTCTACACGGAGTCACCTAGTGCAG”, 10000 fluorescence intensity (a.u.).
“AATCCTGTTGTTGTGGTCTATCGCTTACAACTCTAATACTCGGAGTCACCTAGTGCAG”: the binding signal is 8860 fluorescence intensity (a.u.).
For the sequence “TAATACTCCCTCCGTATTTTAATGTATGATGCCGTTGACTCGGAGTCACCTAGTGCAG”, the binding signal was 10600 fluorescence intensity (a.u.).
As to “CAACCCGGCCGGCCACCTTTTTCCTGTCGATCGTGTGTTGCGGAGTCACCTAGTGCAG”, the binding signal was 8400 fluorescence intensity (a.u.).
Then “TCCGCCACACCTTTTACTACCGATGGAACTGAGTTTTACTCGGAGTCACCTAGTGCAG”, with 8130 fluorescence intensity (a.u.); and “TTGCACATTGGATCATTCTTGTGTTCCATGCCTCTAACCTCGGAGTCACCTAGTGCAG”, with 8920 fluorescence intensity (a.u.).
Consider “TTTGAAGTACTGGTCAGCAAGTTTTTACTCTCTCCTCGCTCGGAGTCACCTAGTGCAG”, for which the binding signal was 8530 fluorescence intensity (a.u.).
To “TGTTTTTTTTTGTGTTCTATATGTTGTTTCCCGTGGTCGTCGGAGTCACCTAGTGCAG” belongs 12100 fluorescence intensity (a.u.); to “TTCTGATTTCTTACTATTCAACATCATATCTTTTTGTGATCGGAGTCACCTAGTGCAG”, 9320 fluorescence intensity (a.u.); to “CTCAGTCGACCAATCGTTGATCGCCACGTCGGCTGTTCTTCGGAGTCACCTAGTGCAG”, 8350 fluorescence intensity (a.u.).
In the case of “ATTTTTTTTTTCACGTGCCGATTGGCCTTATGTTGAAATCCGGAGTCACCTAGTGCAG”, the binding signal is 10300 fluorescence intensity (a.u.).
Consider “CACCTTCTTTTGCTGCTAATCACGTTTTAGTTCGAATTAACGGAGTCACCTAGTGCAG”, for which the binding signal was 9270 fluorescence intensity (a.u.).
To “CTTCTTTGTTCTGATTGCTCCCATTGACTTCATTATTGACCGGAGTCACCTAGTGCAG” belongs 13000 fluorescence intensity (a.u.).
Then “GTTCCTTGATGATTATACCACTTCACCTTTGTTTTTTTTTCGGAGTCACCTAGTGCAG”, with 10200 fluorescence intensity (a.u.).
To “GGTTTGCACTTTTTATTTCAGCGAAAATTTCTGTAGCACCCGGAGTCACCTAGTGCAG” belongs 8360 fluorescence intensity (a.u.).
With “AGTGAACATGCTGGTTTTTAGCTATATTTGTAACAACGTTCGGAGTCACCTAGTGCAG”, the binding signal was 9120 fluorescence intensity (a.u.).
To “ATCTAACTGTTGTCGATCTGGCGGTCTGACGATCTGACTCCGGAGTCACCTAGTGCAG” belongs 12700 fluorescence intensity (a.u.).

The record behind these values is article PMC7819943, “Rice protein-binding microarrays: a tool to detect cis-acting elements near promoter regions in rice”.
